Source: the supplement of paper PMC11150407
Structures can show the parent of a compound that is named as a salt. In all, about 2,100 compounds went through this assay and about 180 (8.6%) showed an effect of 50% or more. Some of the results follow.

These molecules were tested on MOLM1 and UCSD/AML1 (averaged) (assay: cell viability relative to DMSO control (POC); higher = less growth inhibition). Settings: 1 µM; 72 h.
Method: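 Primary viability screen in the 3q26 EVI1-high AML cell lines MOLM1 and UCSD/AML1 (1.5e3 cells/well, 384-well), compounds at 1 uM for 72 h. ATP CellTiter-Glo read-out given as percent of viable cells over DMSO control (POC), averaged over duplicates. DMSO was the negative control and 5 uM etoposide the positive control. This mapping covers the MicroSource Spectrum and Selleck anticancer libraries (drug names).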
Work on Oc1ccc(O)cc1 yielded a cell viability of 83.1%.
CN1CCN(c2cccc(Nc3nc4c(-c5ccc(S(C)(=O)=O)cc5)cccn4n3)c2)CC1 showed a cell viability of 33.3%.
CC1CCC(NC(=O)N(CCCl)N=O)CC1 (centres undefined) was tested, and the cell viability was 94%.
Molecule C[C@H]1[C@H](NC(=O)/C(=N\OC(C)(C)C(=O)O)c2csc(N)n2)C(=O)N1S(=O)(=O)O has a cell viability of 90.4%.
COc1ccc(C2CC(=O)c3ccc(OC)cc3O2)cc1 (centres undefined) gave a cell viability of 109%.
Work on CNCCC=C1c2ccccc2CCc2ccccc21 yielded a cell viability of 101%.
Work on CC(=O)O[C@H]1CC[C@]2(C)[C@H]3CC[C@@]4(C)[C@H](c5ccoc5)OC(=O)[C@H]5O[C@]54[C@]3(C)[C@H](OC(C)=O)C[C@H]2C1(C)C [3beta-ACETOXYDEOXODIHYDROGEDUNIN] yielded a cell viability of 91.2%.
With Cc1ccc2c(c1)CC[C@H]1CC(=O)CC[C@]21C the cell viability was 104%.
In the case of CCc1c2c(nc3ccc(OC(=O)N4CCC(N5CCCCC5)CC4)cc13)-c1cc3c(c(=O)n1C2)COC(=O)[C@]3(O)CC [Irinotecan], the cell viability is reported as 13%.
Molecule CCc1c2c(nc3ccc(OC(=O)N4CCC(N5CCCCC5)CC4)cc13)-c1cc3c(c(=O)n1C2)COC(=O)[C@]3(O)CC [Irinotecan HCl Trihydrate (Campto)] has a cell viability of 15.9%.
CC(C)(O/N=C(\C(=O)N[C@@H]1C(=O)N2C(C(=O)[O-])=C(C[n+]3ccccc3)CS[C@H]12)c1csc(N)n1)C(=O)O showed a cell viability of 95.2%.
Molecule Cc1ccc(/C(=C\CN2CCCC2)c2ccccn2)cc1 has a cell viability of 90.1%.
For CCC[C@H](NC(=O)/C(C#N)=C/c1cccc(Br)n1)c1ccccc1, the cell viability was 57.8%.
CCOc1cc2ncc(C#N)c(Nc3ccc(OCc4ccccn4)c(Cl)c3)c2cc1NC(=O)/C=C/CN(C)C [Neratinib (HKI-272)] showed a cell viability of 14.7%.
In the case of CN1CCN(C(c2ccccc2)c2ccc(Cl)cc2)CC1 (centres undefined), the cell viability is reported as 97.5%.
With Cc1ccc(C(C)C)cc2c(C)ccc1-2 the cell viability was 84.7%.
With CC(=O)Nc1c(I)c(NC(C)=O)c(I)c(C(=O)O)c1I the cell viability was 114%.
In the case of CC(=O)Nc1ccc(S(=O)(=O)Nc2ccc([N+](=O)[O-])cc2)cc1, the cell viability is reported as 101%.
Cn1cc(C2=C(c3ccc(Cl)cc3Cl)C(=O)NC2=O)c2ccccc21 showed a cell viability of 106%.
CN(N=O)C(=O)N[C@@H](C=O)[C@@H](O)[C@H](O)[C@H](O)CO [Streptozotocin (Zanosar)] showed a cell viability of 37.4%.
CCn1cc(C(=O)O)c(=O)c2cc(F)c(N3CCN(C)CC3)cc21 was tested, and the cell viability was 51.4%.
For C[C@@H]1O[C@@H]1P(=O)(O)O, the cell viability was 95%.
C[C@]12C=CC(=O)C=C1CC[C@@H]1[C@@H]2C(=O)C[C@@]2(C)[C@H]1CC[C@]2(O)C(=O)CO [Prednisone (Adasone)] gave a cell viability of 81.9%.
Molecule C[C@]12C=CC(=O)C=C1CC[C@@H]1[C@@H]2C(=O)C[C@@]2(C)[C@H]1CC[C@]2(O)C(=O)CO has a cell viability of 94.2%.
Work on CCOC(=O)CCC(=O)O[C@H]1[C@H](O[C@@H]2[C@@H](C)[C@H](O[C@H]3C[C@@](C)(OC)[C@@H](O)[C@H](C)O3)[C@@H](C)C(=O)O[C@H](CC)[C@@](C)(O)[C@H](O)[C@@H](C)C(=O)[C@H](C)C[C@@]2(C)O)O[C@H](C)C[C@@H]1N(C)C yielded a cell viability of 86%.
CCn1cc(C(=O)O)c(=O)c2cc(F)c(N3CCNC(C)C3)c(F)c21 (centres undefined) gave a cell viability of 102%.
Molecule CS(=O)(=O)Nc1ccc([N+](=O)[O-])cc1Oc1ccccc1 has a cell viability of 96.7%.
O=C(O)C1=CCNCC1 was tested, and the cell viability was 102%.
With CNC(=C[N+](=O)[O-])NCCSCc1csc(CN(C)C)n1 the cell viability was 97.4%.
For OC(Cn1cncn1)(Cn1cncn1)c1ccc(F)cc1F, the cell viability was 95.1%.
Work on NCCc1c[nH]cn1 yielded a cell viability of 101%.
Nc1[nH]cnc2ncnc1-2 showed a cell viability of 88.6%.
CC(=O)[C@@]1(O)CC[C@H]2[C@@H]3C=C(Cl)C4=CC(=O)[C@@H]5C[C@@H]5[C@]4(C)[C@H]3CC[C@@]21C showed a cell viability of 87.5%.
For CC(=O)Nc1cccc(-n2c(=O)n(C3CC3)c(=O)c3c(Nc4ccc(I)cc4F)n(C)c(=O)c(C)c32)c1, the cell viability was 27.3%.
In the case of Cc1cn[nH]c1, the cell viability is reported as 101%.
Work on FC(F)(F)C(Cl)Br (centres undefined) yielded a cell viability of 95.2%.
With O=C(O)CN1C(=O)c2cccc3cccc(c23)C1=O the cell viability was 103%.
CC(=O)O[C@@H]1C[C@H]2C(C)(C)[C@@H](O)CC[C@]2(C)[C@H]2CC[C@@]3(C)[C@H](c4ccoc4)OC(=O)[C@H]4O[C@]43[C@@]21C [beta-DIHYDROGEDUNOL] was tested, and the cell viability was 90.3%.
Work on CCCCN(CCCC)CCCOC(=O)c1ccc(N)cc1 yielded a cell viability of 103%.
In the case of Cc1ccc(C(=O)c2ccc(CC(=O)O)n2C)cc1, the cell viability is reported as 107%.
With COC(=O)Nc1nc2cc(C(=O)c3cccs3)ccc2[nH]1 [Nocodazole] the cell viability was 13.3%.
With CC(=O)OCC(=O)[C@@]1(O)CC[C@H]2[C@@H]3CCC4=CC(=O)CC[C@]4(C)[C@@]3(F)[C@@H](O)C[C@@]21C the cell viability was 102%.
For O=C(O)CCCCCCCC(=O)O, the cell viability was 92.1%.
CCCCCCCCCCCCCCCC(=O)OC/C=C(C)/C=C/C=C(C)/C=C/C1=C(C)CCCC1(C)C was tested, and the cell viability was 100%.
CC(C)(C)c1cnc(CSc2cnc(NC(=O)C3CCNCC3)s2)o1 gave a cell viability of 2.81%.
With NS(=O)(=O)c1cc(C2(O)NC(=O)c3ccccc32)ccc1Cl (centres undefined) the cell viability was 100%.
Work on Cc1ncc(C[n+]2csc(CCO)c2C)c(N)n1 yielded a cell viability of 107%.
For CC(C)c1c(C(=O)Nc2ccccc2)c(-c2ccccc2)c(-c2ccc(F)cc2)n1CC[C@@H](O)C[C@@H](O)CC(=O)O, the cell viability was 95.5%.
In the case of CC(=O)OCC(=O)[C@@]1(O)CC[C@H]2[C@@H]3CCC4=CC(=O)CC[C@]4(C)[C@H]3[C@@H](O)C[C@@]21C, the cell viability is reported as 86%.
CCCc1cc(C(N)=S)ccn1 gave a cell viability of 107%.
With C#Cc1cccc(Nc2ncnc3cc(OC)c(OCCCCCCC(=O)NO)cc23)c1 the cell viability was 22.2%.
With CC(=O)S[C@@H]1CC2=CC(=O)CC[C@]2(C)[C@H]2CC[C@@]3(C)[C@@H](CC[C@@]34CCC(=O)O4)[C@H]12 the cell viability was 98.5%.
CC(Cc1cccc(C(F)(F)F)c1)NCCOC(=O)c1ccccc1 (centres undefined) was tested, and the cell viability was 111%.
Work on C=C1CC[C@H](O)C/C1=C/C=C1\CCC[C@]2(C)[C@@H]([C@H](C)CCCC(C)C)CC[C@@H]12 yielded a cell viability of 109%.
NNCCc1ccccc1 gave a cell viability of 112%.
Molecule CC(C)(CO)[C@@H](O)C(=O)NCCC(=O)NCCSSCCNC(=O)CCNC(=O)[C@H](O)C(C)(C)CO has a cell viability of 103%.
With C[C@H]1O[C@H](O[C@H]2[C@H](O)[C@@H](O)[C@@H](O[C@H]3[C@H](O)[C@@H](O)C(O)O[C@@H]3CO)O[C@@H]2CO)[C@H](O)[C@@H](O)[C@@H]1N[C@H]1C=C(CO)[C@@H](O)[C@H](O)[C@H]1O (some centres undefined) the cell viability was 87.3%.
CN1CCN(CC/C=C2/c3ccccc3Sc3ccc(S(=O)(=O)N(C)C)cc32)CC1 was tested, and the cell viability was 119%.
Work on CN1CCC(=C2c3ccccc3C=Cc3ccccc32)CC1 yielded a cell viability of 87%.
Work on COc1ccc2c(=O)c(OC)c(-c3ccccc3)oc2c1 yielded a cell viability of 89.8%.
Molecule N=C(N)NC(=N)NCCc1ccccc1 has a cell viability of 86.5%.
CC(=O)OCC(=O)[C@@]1(O)[C@@H](C)C[C@H]2[C@@H]3CCC4=CC(=O)C=C[C@]4(C)[C@@]3(F)[C@@H](O)C[C@@]21C showed a cell viability of 70.1%.
In the case of CC(=O)Oc1ccc2c(c1OC(C)=O)OCC1(O)Cc3c(cc(OC(C)=O)c(OC(C)=O)c3OC(C)=O)C21 (centres undefined), the cell viability is reported as 108%.
In the case of CC[C@H](/C=C/[C@@H](C)[C@H]1CC[C@H]2[C@@H]3CC=C4C[C@@H](O)CC[C@]4(C)[C@H]3CC[C@]12C)C(C)C, the cell viability is reported as 107%.
Molecule O=C(O)c1cn(-c2ccc(F)cc2)c2cc(N3CCNCC3)c(F)cc2c1=O has a cell viability of 103%.
Molecule C[N+]1(C)CCC(OC(=O)C(O)(c2ccccc2)C2CCCC2)C1 (centres undefined) has a cell viability of 98.8%.
With CCCCCCCCCCCCCCCCCCOCC(O)CO (centres undefined) the cell viability was 85%.
N#Cc1ccc(C(c2ccc(C#N)cc2)n2cncn2)cc1 [Letrozole] was tested, and the cell viability was 96.4%.
CCCCCc1c2c(cc(O)c1C(=O)O)OC(=O)c1c(cc(OC)cc1C(=O)CCCC)O2 was tested, and the cell viability was 114%.
COc1c2occc2cc2ccc(=O)oc12 was tested, and the cell viability was 95.5%.
Molecule N=C(NCCCCCCNC(=N)NC(=N)Nc1ccc(Cl)cc1)NC(=N)Nc1ccc(Cl)cc1 has a cell viability of 102%.
With COC(=O)c1cc(O)c(=O)c2c(O)c(O)ccc2c1 the cell viability was 109%.
Work on Oc1cc(O)c2c(c1)O[C@H](c1ccc(O)c(O)c1)[C@@H](O)C2 yielded a cell viability of 99.3%.
Molecule CCN(CC)CCOC(=O)C1(C2CCCCC2)CCCCC1 has a cell viability of 89.7%.
O=c1cc(-c2ccccc2)oc2c(O)c(O)ccc12 was tested, and the cell viability was 96.2%.
Molecule COc1ccc([C@@H]2CC(=O)c3c(O)cc(O)cc3O2)cc1O has a cell viability of 108%.
With CN(C)CCCN1c2ccccc2Sc2ccc(C(F)(F)F)cc21 the cell viability was 92.6%.
Work on COc1ccc(-c2ccc3c(N4CCOC[C@@H]4C)nc(N4CCOC[C@@H]4C)nc3n2)cc1CO yielded a cell viability of 23.6%.
Cc1ccc(N(CC2=NCCN2)c2cccc(O)c2)cc1 showed a cell viability of 88.5%.
Work on Cc1ccc(S(=O)(=O)C=CC#N)cc1 yielded a cell viability of 1.01%.
O=C(O)c1ccccc1-c1c2cc(I)c(=O)c(I)c-2oc2c(I)c(O)c(I)cc12 showed a cell viability of 77.6%.
For CCc1ccc(CCOc2ccc(CC3SC(=O)NC3=O)cc2)nc1 (centres undefined), the cell viability was 96.1%.
Work on CCc1ccc(CCOc2ccc(CC3SC(=O)NC3=O)cc2)nc1 (centres undefined) [Pioglitazone (Actos)] yielded a cell viability of 94.3%.
CC(=O)C1=C(O)C=C2Oc3c(C(C)=O)c(O)c(C)c(O)c3C2(C)C1=O (stereo in doubt) gave a cell viability of 113%.
CO[C@H]1/C=C/O[C@@]2(C)Oc3c(C)c(O)c4c(O)c(c(/C=N/N5CCN(C)CC5)c(O)c4c3C2=O)NC(=O)/C(C)=C\C=C\[C@H](C)[C@H](O)[C@@H](C)[C@@H](O)[C@@H](C)[C@H](OC(C)=O)[C@@H]1C gave a cell viability of 103%.
In the case of Cc1c(Cl)cccc1Nc1ccccc1C(=O)O, the cell viability is reported as 90.7%.
For CCCSc1ccc2[nH]c(NC(=O)OC)nc2c1, the cell viability was 12.4%.
Work on C[C@@H]1CC[C@H]2C(C)(C)[C@H]3C[C@@]12CC[C@@]3(C)O yielded a cell viability of 105%.
With CC[C@H]1OC(=O)[C@H](C)[C@@H](O[C@H]2C[C@@](C)(OC)[C@@H](O)[C@H](C)O2)[C@H](C)[C@@H](O[C@@H]2O[C@H](C)C[C@H](N(C)C)[C@H]2O)[C@](C)(O)C[C@@H](C)C(=O)[C@H](C)[C@@H](O)[C@]1(C)O the cell viability was 98.2%.
